Measurements reported in PubChem BioAssay AID1259308 (NCATS, 2017).

Aim: 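Genes whose loss raises luciferase production in HEK293 cells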 (primary screen)
Cells: human HEK293 embryonic kidney cells stably expressing firefly luciferase (HEK-CMV-Luc2-Hygro)
Knock-down reagent: single siRNA against human genes, 0.8 pmol siRNA per well
Timing: 72 h
Detection: 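Reporter luminescence and viable-cell signal on separate replicate plates, given as percent of non-targeting control and median/MAD z-scores, plus per-cell luciferase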
Direction: total luciferase, z-score and total luciferase, % of control: higher = more reporter protein produced
Active means: 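Active when the median/MAD z-score for overall luciferase is greater than 3; a gene was taken forward for validation with new siRNAs if at least two of its three siRNAs passed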
Calls: active = raised luciferase; inactive = no rise
In all, the deposit lists about 59,000 reagents; shown is a random part of them. Of all reagents, about 1,510 (2.6%) were called active. 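Calls use total luciferase alone and ignore viability, so some active siRNAs may act by altering cell number.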 A number with no mark means an inactive call. The numbers tell different reagents against one gene apart. Further read-outs or replicates are left out here.

gene symbol,reagent no.,"total luciferase, z-score","total luciferase, % of control"
ABCC1,1,-1.36,54.8
ABCC1,2,-0.00674,81.8
ABCC1,3,0.797,97.7
POLR2I,1,-3.25,17.3
POLR2I,2,-2.85,25.2
POLR2I,3,-1.45,53.1
SEMA7A,1,1.47,111
SEMA7A,2,0.909,100
SEMA7A,3,0.755,96.9
ERN1,1,1.17,105
ERN1,2,1.6,114
ERN1,3,0.272,87.3
USP24,1,-0.667,68.6
USP24,2,-1.43,53.5
USP24,3,-1.15,59.1
PLEKHA4,1,-0.248,77
PLEKHA4,2,-0.426,73.4
PLEKHA4,3,0.347,88.8
APOBEC3C,1,0.154,84.9
APOBEC3C,2,-1.11,59.8
APOBEC3C,3,-0.124,79.4
MYCL,1,1.67,115
MYCL,2,-0.994,62.1
MYCL,3,-0.483,72.3
ATL1,1,-0.686,68.2
ATL1,2,-0.824,65.5
ATL1,3,-0.128,79.3
KRTAP10-10,1,-2.62,29.8
KRTAP10-10,2,-1.79,46.3
KRTAP10-10,3,0.29,87.7
RPF1,1,-0.549,71
RPF1,2,-1.83,45.6
RPF1,3,-0.664,68.7
GAPT,1,0.499,91.8
GAPT,2,-0.294,76
GAPT,3,0.0203,82.3
CIB1,1,-0.437,73.2
CIB1,2,1.33,108
CIB1,3,0.186,85.6
